Experimental data: paper PMC10241913
No constants are given. Whether binding was seen depends on the method and setting. Values belong to the binder of their own block, whether it stands above or below them.

Key:
[1] = target: T1, Atto594-UBXD1-eUBX (containing the linker), 269-441 (human) (UniProt Q9BZV1); test: fluorescence polarisation; fluorescence anisotropy titration of Atto594-UBXD1-eUBX (269-441) with UBXD1-PUB as titrant; n = 3; both purified
T1 sequence (chain, Atto594 (NHS ester labelling)): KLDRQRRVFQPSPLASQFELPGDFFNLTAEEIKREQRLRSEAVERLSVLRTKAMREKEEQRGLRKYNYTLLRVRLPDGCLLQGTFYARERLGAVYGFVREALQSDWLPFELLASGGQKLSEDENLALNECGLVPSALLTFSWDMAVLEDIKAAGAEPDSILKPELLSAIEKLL

[2] = target: T2, UBXD1-eUBX-C (269–441), for fluorescence anisotropy (human) (UniProt Q9BZV1); test: fluorescence polarisation; fluorescence anisotropy titration of eUBX-C (269–441) and PUB (150–264); which one was labeled is not told; both purified
T2 sequence (chain, Atto594 (NHS ester; the UBXD1 proteins were labeled for anisotropy)): T1 sequence (chain, Atto594 (NHS ester labelling))

binding [1]: no binding
B1: UBXD1-PUB (150-264) (domain or fragment, UniProt Q9BZV1 150-264)
chain: STDPVAASIMKIYTFNKDQDRVKLGVDTIAKYLDNIHLHPEEEKYRKIKLQNKVFQERINCLEGTHEFFEAIGFQKVLLPAQDQEDPEEFYVLSETTLAQPQSLERHKEQLLAAE

binding [2]: no binding
B2: UBXD1-PUB (150–264) (domain or fragment, UniProt Q9BZV1 150-264)
chain: B1 chain
